Assay results as given in US20120076796A1 (Ablynx, published 2012).
Numbering of substitutions follows the chain as printed. Results are given in words; binding and its absence hold for the method and conditions named.

B1: 163-H8 (VHH)
VHH: EVQLVESGGGLVQPGGSLRLSCAASGFTFGSNGMRWVRQAPGKGPEWVSSINSDGTSTYYAESVKGRFTISRDNAKNTLYLQMHSLKPEDTAVYYCTTTENPNPRGPGTQVTVSS
notes: Nanobody
B2: 163-E9 (VHH)
VHH: B1 VHH with G16D, E62D, Y80C, H84N, N101D, N103Y, P107Q
notes: Nanobody; also called Nanobody 163E9; Tie-2 Nanobody 163E9
B3: 163-G8 (VHH)
VHH: B1 VHH with T58A, Y59F, H84N, E100M, P107Q
notes: Nanobody
B4: 162-E1 (VHH)
VHH: EVQLVESGGGLVQAGGSLRLSCAASGSIFSINAMGWYQQAPGKQRELVAFITSVGTTNYADSVKGRFIISRDNAKNTVYLQMNSLKPEDTAVYYCAADLHYSGPNYWGQGTQVTVSS
notes: Nanobody; Footnote: q in FR2 of 162-E1 from an Amber stop codon
B5: 162-E9 (VHH)
VHH: EVQLVESGGGLVQPGGSLRLSCAASGFTLDDYAIGWFRQAPGKEREAVSCISSVDGSTHYADSVKGRFTISRDNAKDTVYLQMNSLKPEDTAAYYCAVQGYSGGYYYTCEDSADFGFWGQGTQVTVSS
notes: Nanobody
B6: 162-H10 (VHH)
VHH: B5 VHH with I34V, A47G, S52G, V54S, D55Y, H59Y, D77N, A93V
notes: Nanobody
B7: 163-E7 (VHH)
VHH: EVQLVESGGGLVQPGGSLRLSCAASGFTFSDYSMSWVRQAPGKGLEWVSAISGGGEVTTYADSVKGRFTISRDNAKNTLYLQMSSLKPEDTALYYCAEHLNFYSVSVRSSPTSQGTQVTVSS
notes: Nanobody
B8: 162-F11 (VHH)
VHH: EVQLVESGGGLVQAGGSLRLSCAASGFTFDDYAIGWFRQAPGKEREGVACISSSDGSTYYADSVKGRFTISSDNAKNTVYLQMNSLKPEDTAVYSCSAGSVAGCIPYYWGQGTQVTVSS
notes: Nanobody
B9: 162-F3 (VHH)
VHH: EVQLVESGGGLVQAGDSLRLSCTTSGRTFSDDTMGWFRQAPRKEREFVAAILWDSIKTYYADSVKGRFTISRDNAKNTVYLQMDSLKPEDTAVYYCAATPTAYGTDWYRNNYHYWGQGTQVTVSS
notes: Nanobody

Target: hIgG+rh B7.2/Fc (human)
Assay: condition: 10 ul phage supernatant in 100 ul (one dilution); phage ELISA on coated control proteins (0.2 ug/ml human IgG and 0.2 ug/ml rh B7.2/Fc), anti-M13-HRP, OD 450 nm

Binder	binding
B1	no binding
B2	no binding
B3	no binding
B4	no binding
B5	no binding
B6	no binding
B7	no binding
B8	no binding
B9	no binding
